The whole screen tested about 52,000 sequences, of which about 210 (0.4%) were called active.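 The calls were made as follows: active = gene whose silencing raises cell survival under the drug, median off-target-corrected z-score across its silencing RNAs 2 or more; inactive = the rest.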 The list shows a part of the results.
Assay: Resistance to Poly (ADP-Ribose) Polymerase inhibitor: Gene Identification via Genome-wide siRNA Screen
Settings: mouse BRCA2 R2336H ES cells, olaparib, CellTiter-Glo viability; hits give high values
In short: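 Genome-wide siRNA screen (3 siRNAs/gene, 20 nM) in mouse ES cells carrying hypomorphic BRCA2 R2336H; olaparib 500 nM added 48 h post-transfection, CellTiter-Glo viability 72 h later. Normalized to plate-median negative control; MAD z-scores, gene median, seed-adjusted.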

Sequence | z-score
GCUGUGAAAUGUUACUGCUTT against Gm405 | inactive: 0.173
GCGACGAGAAGAAUCUGCUTT against 1110012J17Rik | inactive: 1.01
GGACAACUUCACCUUGAUUTT against Dpysl2 | inactive: 0.112
GCCUGUCAACUACCCAUAUTT against Sdbcag84 | inactive: 1.64
GCCACGUUCCCUUGAUCAUTT against Mx2 | inactive: -0.331
GCCCAAGUUUCGGUCUCCATT against Map4k1 | inactive: -1.24
GGAACAAAGAUUGAGAGAATT against 5730555F13Rik | inactive: -0.71
GACAAGAUGCACUUCGAAUTT against Uchl3 | inactive: -0.199
GGGUCUGCUGGUUUAUUUUTT against Olfr720 | inactive: 0.616
GGCCCUAAACAAGUUAUCUTT against LOC434285 | inactive: -0.321
GGUAGAAGCAGAGUUACCATT against 4933400C05Rik | inactive: 1.17
GGACAGGAGUUUAAAAUUATT against Mmrp19 | inactive: 0.948
GGAGGAGGUGGAAUUCAUUTT against Dnajb6 | inactive: -1.66
GGACAGUUGUGUUUCUUCUTT against Senp6 | inactive: -0.17
CGGAAAUGUAAGUACUUUATT against Taf13 | inactive: 1.22
GGAUUUUUGGCUUCAUACUTT against Dcbld2 | inactive: 0.417
CCCAGUUCUGUCCUACUUATT against 4931407K02Rik | inactive: 0.531
GCAACACCUACGUUUUUGUTT against Txnl1 | inactive: 1.01
GCCGAUGAAGUAAAUUUACTT against LOC212390 | inactive: 0.463
GGAAGAUGUCUCCUAUGAGTT against Hebp1 | inactive: -1.03
GGACAAUGACCAGAAUAGCTT against 0610012H03Rik | inactive: -0.186
CCUUCCAUCUUUGUCUACCTT against Olfr1181 | inactive: 0.21
GGGAAUUCUUCCCACCUCUTT against Pramel7 | inactive: -0.0747
CAGUUUUUGGUCUCUAUCUTT against Olfr113 | inactive: 0.798
CCAAGGGUAGUAUUUUAAATT against Nufip1 | inactive: 0.0643
GGAAUCCAAGAAGCCACCATT against Ghrl | inactive: 0.223

Sequence | z-score
CCUUUAGAGAAAAGUUCUATT against Pja2 | inactive: -0.81
GAGUUUACCUAGUCUUUGATT against 2610028H07Rik | inactive: -0.00982
GGCUUGAAGAUGUCUAUGATT against Aptx | inactive: -1.4
CCUUUGGUUUCCAGUGAGUTT against H2-M10.6 | inactive: -1.16
GGAGAACCAAAACAGCGAATT against Hoxa2 | inactive: 0.951
GCAUGCGAUGAAGACAACATT against 2610021K21Rik | inactive: -0.613
GCUGGAAGUAGUCCAUACATT against 1810074P20Rik | inactive: -0.771
GGUACAGGAUAAGCAAAUATT against Txndc4 | inactive: -0.356
GGUUCUGUCCAAUGUCUGATT against Oas1f | inactive: -0.116
GCGUAUUCAGCUGGGAUAGTT against Marveld2 | inactive: -2.98
GGAUUAGAUUAACCUCGACTT against P518 | inactive: -1.13
GGGAAUAAGUAGUAGACUCTT against BC049807 | inactive: 0.975
GCCUUUACAACAGAACCUUTT against Dip3b | inactive: 0.0761
GCACCAUUUUGAUCGUCAUTT against Olfr519 | inactive: 0.0178
GGCAGACAAGUUGUUAAAATT against Nusap1 | inactive: -1.11
GGGUGGGUGUUCAUUAUUATT against Timd2 | inactive: 0.102
GGAUCUGGAGAAGAUGAUGTT against Ret | inactive: -1.9
GGGACAAAGUAAUAAAGUGTT against Sprrl2 | inactive: -0.821
GGAAAUCCAAGAACUUAAUTT against Fgfr1op2 | inactive: 0.325
GGACUCUCAUUGAGGAACUTT against Znhit2 | inactive: 1.06
GGUUUUGAAAAAGCAUCAATT against Myoz2 | inactive: 0.6
GGGCCAACAAACUGUUUAATT against 2210402C18Rik | inactive: -0.095
GGAUGACUCACAGAAUUUGTT against Olfr167 | inactive: -0.118
GGAGAUGCUCAUUUUGAUUTT against Mmp8 | inactive: 0.397
GGACUCCUACAUGAUUGCUTT against Gpr172b | inactive: -0.335
GCUGAGUGAAUCCACGUACTT against 2010001M09Rik | inactive: 0.936

Individual results from the results shown:
For z-score, GGACAGGAGUUUAAAAUUATT against Mmrp19 reads inactive: 0.948
For z-score, GCCGAUGAAGUAAAUUUACTT against LOC212390 reads inactive: 0.463
For z-score, GGAUCUGGAGAAGAUGAUGTT against Ret reads inactive: -1.9

Random excerpt: 4 records from the list.
Sequence | z-score
GCUGGAAGUAGUCCAUACATT against 1810074P20Rik | inactive: -0.771
GGUACAGGAUAAGCAAAUATT against Txndc4 | inactive: -0.356
GGAGAACCAAAACAGCGAATT against Hoxa2 | inactive: 0.951
GGACUCCUACAUGAUUGCUTT against Gpr172b | inactive: -0.335

Next part.

Sequence | z-score
GGACUCCUAUGUGGGUGACTT against Actb | inactive: 0.88
GAGGGAUAUGUGAAGCCUCTT against Mospd3 | inactive: -1.38
GGAAAGAAUCACAAGGAAATT against Wbp4 | inactive: 1.38
CCUUCCCUAAGAUCAGGCGTT against Gsdm3 | inactive: -0.0883
GGAAUACCUGCUUUUAUUUTT against 4930455C21Rik | inactive: 1.14
GGUGGCUAGCCAGACAAAATT against Rnf151 | inactive: -1.23
GGAAAAGCUACCUGUGUCATT against 1200009O22Rik | inactive: -1.35
GGAGUUCAAGGCCAAGGAATT against Atp6v1g1 | inactive: -1.9
CGGUGAGGAUUGUUGAGCUTT against D130060H24Rik | inactive: -0.705
GGAGAGGAAUGGUGUGUUATT against 4931428D14Rik | inactive: -0.16
ACAAGAAACGUACAAGACATT against MGC103250 | inactive: 1.29
GGACCUGGAAUUCGUCUGATT against Socs3 | inactive: -1.19
CCUUCUUAUAGGUUAACUGTT against Pde10a | inactive: 0.808
GCAGUUUUAACUGGCCAUATT against Nr2f2 | inactive: -0.57
GGACAGCAGCAACAACAUCTT against Dnase1l3 | inactive: -1.06
GGAGCUUGACAUUAAGGACTT against D14Ertd171e | inactive: -2.32
GCUUGACUUGUUUUUGGCATT against Nfib | inactive: 1.26
CGAAUCAUGUGUUUGCACATT against Camkk2 | inactive: -0.414
GCUGAACGGUCUCAAACAGTT against Cdca3 | inactive: -2.24
GGUUGUACUUGUUUUUCCUTT against 1810033A06Rik | inactive: -0.945
GCUUCGAGAGUUCAACAUCTT against Zmynd19 | inactive: 1.08
GCAGUCAUAACAGAGCAUCTT against Gtf2h3 | inactive: 1.13
GGGCUUUGGAUGAACUGCATT against Cldn17 | inactive: -0.46
GCAGCACCUUUGUGGUUCCTT against Ins2 | inactive: -0.904
GGAAAUCCAUCGUUAUUCUTT against Abca8a | inactive: 1.03
GCUACUAAAGGUUUUAGGATT against Rps6ka2 | inactive: 1.45

Sequence | z-score
GCUAUGUUCACUAUCCCACTT against AI849156 | inactive: 0.228
GGAGUUGUCUGUCUUUAAGTT against Inpp5a | inactive: 1.64
GCCAUUUGAGUAUGUUGCATT against DXImx50e | inactive: 0.0229
GGACAGCGACAAGAUUCCGTT against Sox4 | inactive: 0.264
GGAACUAGUUUUUAUACUCTT against Igfbp1 | inactive: 0.197
GGUUAAAAAGGAUUUCAGCTT against E430026E19Rik | inactive: -0.177
GCCAAUGAACCGAUCUCUGTT against Ep400 | inactive: -1.49
GCGAGUUUGUGCUACAAAATT against Htr7 | inactive: -0.685
GGAGACUAUUUCAUCUACUTT against Tnfsf15 | inactive: 0.00701
GCUCAUUCACACUUAAUCATT against Dock11 | inactive: 0.0746
GGACCACCAUUCCAUCAGATT against Sema3d | inactive: 1.84
CCAGGUCUAUUUUGCCAUUTT against Dnmbp | inactive: 1.15
GCACAUCGCAUUACUAACATT against Pabpc2 | inactive: -0.219
GGAGAUGCAGGUCUUCUUGTT against Acdc | inactive: -0.0242
GGCCGAGGAUGAAAUUGAGTT against Stk25 | inactive: 1.41
GGUGGUCUACAGAAAAUUCTT against Ncf1 | inactive: 1.4
GGAAUAUUUUUUCUGGGAGTT against Ugt8 | inactive: 0.863
GGAAUACAUCUACAAAGAGTT against AA959601 | inactive: 0.676
GGAGUUUUGUGAACUAUGATT against Slc36a3 | inactive: 2.17
GCAACAUUGCAUCUAUUUATT against Dbx1 | inactive: 0.0186
GGGUGUGUUGUAUCUCCCUTT against Cdh26 | inactive: 1.89
GGAUCCAAUCAGGAGAAAGTT against Lass4 | inactive: -0.667
GGCCAUGGUUCUAUAGGACTT against D430004I08Rik | inactive: 1.4
CCGACAAACGCAAGGUGAUTT against 2900027G03Rik | inactive: -1.4
GGAAUAUGUGCAGAAGCUGTT against Fgd2 | inactive: -0.21
GGCUGACAAGGCCAAAUACTT against 1700012H17Rik | inactive: -1.13
